Results are given in words; binding and its absence hold for the method and conditions named. Binding seen in cells or lysates may run through a third protein. A yes stands for co-enrichment or nearness to the bait. Other partners may have been found.
Target: insulin growth factor binding protein 2 (human (endogenous in plasma)) (UniProt P18065)
Assay: affinity purification with mass spectrometry

Sequences of proteins named here, by UniProt entry; tags and fusion partners are left off. Residues count along the entry.
UniProt P18065, residues 36-325: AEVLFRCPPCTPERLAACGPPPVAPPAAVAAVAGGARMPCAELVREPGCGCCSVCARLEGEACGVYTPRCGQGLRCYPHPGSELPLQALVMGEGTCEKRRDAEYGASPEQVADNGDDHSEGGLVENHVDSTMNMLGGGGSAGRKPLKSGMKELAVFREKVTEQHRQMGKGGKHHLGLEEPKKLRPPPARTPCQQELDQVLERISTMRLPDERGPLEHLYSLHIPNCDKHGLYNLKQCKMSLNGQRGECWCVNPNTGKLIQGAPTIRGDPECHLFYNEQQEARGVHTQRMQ
UniProt P05019, residues 49-118: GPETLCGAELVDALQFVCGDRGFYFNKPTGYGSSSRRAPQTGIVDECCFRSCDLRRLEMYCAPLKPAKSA

Row | binding | Molecule
1 | binds | insulin growth factor 1 (from UniProt P05019 49-118)
2 | binds | deoxyribose-phosphate aldolase (enzyme, UniProt Q9Y315 1-318) MSAHNRGTELDLSWISKIQVNHPAVLRRAEQIQARRTVKKEWQAAWLLKAVTFIDLTTLSGDDTSSNIQRLCYKAKYPIREDLLKALNMHDKGITTAAVCVYPARVCDAVKALKAAGCNIPVASVAAGFPAGQTHLKTRLEEIRLAVEDGATEIDVVINRSLVLTGQWEALYDEIRQFRKACGEAHLKTILATGELGTLTNVYKASMIAMMAGSDFIKTSTGKETVNATFPVAIVMLRAIRDFFWKTGNKIGFKPAGGIRSAKDSLAWLSLVKEELGDEWLKPELFRIGASTLLSDIERQIYHHVTGRYAAYHDLPMS

Source: publication doi:10.1101/158022
